Experimental data as given in patent US20260152565A1 (Dana-Farber, published 2026).
Results are given in words; binding and its absence hold for the method and conditions named. Some entries that bind do so weakly or less than the wild type.

The chains behind the UniProt entries cited, without tags or fusion partners. Where a name states a change or a piece, a line headed by the entry shows the natural chain unless it says otherwise.
UniProt Q02223: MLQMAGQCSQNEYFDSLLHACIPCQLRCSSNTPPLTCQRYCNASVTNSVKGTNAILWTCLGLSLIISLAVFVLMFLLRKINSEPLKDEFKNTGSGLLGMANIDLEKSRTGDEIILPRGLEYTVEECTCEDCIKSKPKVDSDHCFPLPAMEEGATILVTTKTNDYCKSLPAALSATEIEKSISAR

B1: PR000943 (antibody, V domains shown)
VH: EVQLVETGGGLIQPGGSLRLSCAASGFPVSSNYMSWVRQAPGKGLEWVSVIFSGGRTYYADSVKGRFTISRDNSKNTLYLQMNSLRAEDTAVYYCARRNWIDGRDAFDIWGQGTMVTVSS
notes: also called HCAb antibody PR000943; not shown: constant part (CH2 and CH3 regions of the Harbour HCAb format)
B2: PR000940 (antibody, V domains shown)
VH: EVQLLESGGGLVQPGGSLRLSCAASGFTFSSYAMIWVRQAPGKGLEWVSGISESGGSTYYADSVKGRFTISRDNSKNTLYLQMNSLRAEDTAVYFCVKDLDDILTGYYKDYWGQGTLVTVSS
notes: Heavy chain-only antibody from Harbour HCAb mice: dimer of two heavy chains, each with VH, CH2 and CH3; also called HCAb antibody PR000940; not shown: constant part (CH2 and CH3 regions of the Harbour HCAb format)

Assays:
[1] = target: cynomolgus monkey BCMA expressed on HEK 293T cells (cynomolgus monkey); experiment: binding to HEK 293T-cyno BCMA cells
[2] = target: cynomolgus monkey BCMA expressed on HEK 293T cells (cynomolgus monkey); experiment: cell binding, MFI against antibody concentration, panel title Bind to HEK293T - cyno BCMA
[3] = target: BCMA on cells, species not stated (Homo sapiens (Human)) (UniProt Q02223); experiment: binding to NCI-H9292 cells
[4] = target: BCMA on cells, species not stated (Homo sapiens (Human)) (UniProt Q02223); experiment: cell binding, MFI against antibody concentration, panel title Bind to NCI-H929 cell
[5] = target: BCMA on cells, species not stated (Homo sapiens (Human)) (UniProt Q02223); experiment: competition: blocking of BAFF binding to BCMA, OD450 against antibody concentration in nM, panel title Blocking of BAFF to BCMA

| Binder | binding [1] | binding [2] | binding [3] | binding [4] | binding [5] |
| --- | --- | --- | --- | --- | --- |
| B1 | binds | binds | – | – | – |
| B2 | – | – | binds | binds | binds |
